# According to the supplement of paper PMC10849652:
# Chains of the proteins cited; added tags and fusions are not shown. Lines headed by an entry give the natural chain unless they say otherwise; changes in a name come on top.
# UniProt Q6P587: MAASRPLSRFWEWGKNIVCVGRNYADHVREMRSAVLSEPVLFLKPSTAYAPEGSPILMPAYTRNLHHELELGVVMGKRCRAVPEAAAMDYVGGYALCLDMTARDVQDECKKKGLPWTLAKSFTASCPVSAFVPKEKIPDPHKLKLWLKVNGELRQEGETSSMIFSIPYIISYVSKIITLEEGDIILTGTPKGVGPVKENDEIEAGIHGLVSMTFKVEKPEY
# UniProt Q9NV70: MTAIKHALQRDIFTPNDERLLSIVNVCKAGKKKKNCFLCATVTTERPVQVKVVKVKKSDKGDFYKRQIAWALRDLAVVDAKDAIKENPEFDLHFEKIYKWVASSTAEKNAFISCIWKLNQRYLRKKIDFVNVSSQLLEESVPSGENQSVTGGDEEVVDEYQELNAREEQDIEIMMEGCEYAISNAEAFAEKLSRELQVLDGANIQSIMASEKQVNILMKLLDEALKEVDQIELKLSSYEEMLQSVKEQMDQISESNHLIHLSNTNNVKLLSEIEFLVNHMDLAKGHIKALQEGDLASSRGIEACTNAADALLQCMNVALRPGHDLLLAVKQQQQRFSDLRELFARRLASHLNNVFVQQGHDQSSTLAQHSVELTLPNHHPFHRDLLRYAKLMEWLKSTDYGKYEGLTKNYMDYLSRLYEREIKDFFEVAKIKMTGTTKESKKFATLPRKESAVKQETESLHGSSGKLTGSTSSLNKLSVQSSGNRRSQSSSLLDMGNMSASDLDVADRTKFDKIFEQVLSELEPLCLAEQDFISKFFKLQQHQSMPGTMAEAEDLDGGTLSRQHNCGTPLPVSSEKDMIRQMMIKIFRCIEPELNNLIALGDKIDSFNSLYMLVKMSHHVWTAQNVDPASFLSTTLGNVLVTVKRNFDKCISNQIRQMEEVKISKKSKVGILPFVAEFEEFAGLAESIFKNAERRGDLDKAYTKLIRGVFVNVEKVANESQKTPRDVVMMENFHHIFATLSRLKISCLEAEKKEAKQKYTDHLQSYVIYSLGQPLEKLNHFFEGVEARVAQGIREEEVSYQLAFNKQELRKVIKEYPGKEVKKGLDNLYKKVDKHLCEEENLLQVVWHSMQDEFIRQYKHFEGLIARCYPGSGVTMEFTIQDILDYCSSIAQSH
# UniProt Q9HBU6: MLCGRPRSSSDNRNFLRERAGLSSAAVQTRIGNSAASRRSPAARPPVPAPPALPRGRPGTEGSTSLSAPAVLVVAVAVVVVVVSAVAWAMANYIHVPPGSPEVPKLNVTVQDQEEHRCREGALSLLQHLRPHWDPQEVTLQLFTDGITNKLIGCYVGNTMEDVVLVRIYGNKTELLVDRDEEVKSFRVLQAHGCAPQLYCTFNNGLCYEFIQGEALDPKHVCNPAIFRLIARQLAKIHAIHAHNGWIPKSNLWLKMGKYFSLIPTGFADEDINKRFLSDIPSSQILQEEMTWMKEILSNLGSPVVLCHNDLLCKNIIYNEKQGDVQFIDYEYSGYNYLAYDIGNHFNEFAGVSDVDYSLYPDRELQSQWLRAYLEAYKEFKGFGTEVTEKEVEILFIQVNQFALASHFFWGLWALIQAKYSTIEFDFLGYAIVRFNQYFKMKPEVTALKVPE
# UniProt Q9UKR5: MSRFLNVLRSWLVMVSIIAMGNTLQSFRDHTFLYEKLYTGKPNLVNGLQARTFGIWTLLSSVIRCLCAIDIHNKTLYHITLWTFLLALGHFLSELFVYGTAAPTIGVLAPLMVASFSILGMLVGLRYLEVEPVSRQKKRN
# UniProt Q96E09: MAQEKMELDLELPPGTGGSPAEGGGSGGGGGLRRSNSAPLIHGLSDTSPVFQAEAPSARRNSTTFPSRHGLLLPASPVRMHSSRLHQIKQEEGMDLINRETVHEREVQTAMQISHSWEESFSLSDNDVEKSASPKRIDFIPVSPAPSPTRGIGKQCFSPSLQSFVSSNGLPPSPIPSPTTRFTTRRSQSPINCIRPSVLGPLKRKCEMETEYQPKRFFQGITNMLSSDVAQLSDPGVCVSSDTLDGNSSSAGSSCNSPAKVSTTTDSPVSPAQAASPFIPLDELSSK
# UniProt Q8TAG9: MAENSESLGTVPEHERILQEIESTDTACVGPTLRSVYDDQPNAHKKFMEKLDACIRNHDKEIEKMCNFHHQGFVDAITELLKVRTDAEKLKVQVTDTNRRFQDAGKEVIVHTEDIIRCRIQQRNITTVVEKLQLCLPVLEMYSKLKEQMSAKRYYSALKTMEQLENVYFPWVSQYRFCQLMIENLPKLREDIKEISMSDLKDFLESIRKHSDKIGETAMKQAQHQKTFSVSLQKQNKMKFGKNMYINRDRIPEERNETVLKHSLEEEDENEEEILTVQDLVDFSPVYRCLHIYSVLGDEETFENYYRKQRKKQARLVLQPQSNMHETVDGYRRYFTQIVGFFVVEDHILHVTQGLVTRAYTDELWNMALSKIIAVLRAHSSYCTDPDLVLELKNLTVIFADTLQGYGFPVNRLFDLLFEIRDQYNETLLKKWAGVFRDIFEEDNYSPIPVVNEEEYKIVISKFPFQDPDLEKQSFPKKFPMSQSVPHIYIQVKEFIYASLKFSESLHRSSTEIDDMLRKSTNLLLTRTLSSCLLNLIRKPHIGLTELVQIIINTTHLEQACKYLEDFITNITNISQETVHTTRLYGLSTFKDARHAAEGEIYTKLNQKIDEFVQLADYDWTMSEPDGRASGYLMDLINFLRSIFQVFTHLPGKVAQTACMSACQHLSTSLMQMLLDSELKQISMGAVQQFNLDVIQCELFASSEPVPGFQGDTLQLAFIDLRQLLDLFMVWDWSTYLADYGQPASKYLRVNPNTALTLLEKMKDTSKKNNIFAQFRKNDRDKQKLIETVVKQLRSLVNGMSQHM
# UniProt Q96A65: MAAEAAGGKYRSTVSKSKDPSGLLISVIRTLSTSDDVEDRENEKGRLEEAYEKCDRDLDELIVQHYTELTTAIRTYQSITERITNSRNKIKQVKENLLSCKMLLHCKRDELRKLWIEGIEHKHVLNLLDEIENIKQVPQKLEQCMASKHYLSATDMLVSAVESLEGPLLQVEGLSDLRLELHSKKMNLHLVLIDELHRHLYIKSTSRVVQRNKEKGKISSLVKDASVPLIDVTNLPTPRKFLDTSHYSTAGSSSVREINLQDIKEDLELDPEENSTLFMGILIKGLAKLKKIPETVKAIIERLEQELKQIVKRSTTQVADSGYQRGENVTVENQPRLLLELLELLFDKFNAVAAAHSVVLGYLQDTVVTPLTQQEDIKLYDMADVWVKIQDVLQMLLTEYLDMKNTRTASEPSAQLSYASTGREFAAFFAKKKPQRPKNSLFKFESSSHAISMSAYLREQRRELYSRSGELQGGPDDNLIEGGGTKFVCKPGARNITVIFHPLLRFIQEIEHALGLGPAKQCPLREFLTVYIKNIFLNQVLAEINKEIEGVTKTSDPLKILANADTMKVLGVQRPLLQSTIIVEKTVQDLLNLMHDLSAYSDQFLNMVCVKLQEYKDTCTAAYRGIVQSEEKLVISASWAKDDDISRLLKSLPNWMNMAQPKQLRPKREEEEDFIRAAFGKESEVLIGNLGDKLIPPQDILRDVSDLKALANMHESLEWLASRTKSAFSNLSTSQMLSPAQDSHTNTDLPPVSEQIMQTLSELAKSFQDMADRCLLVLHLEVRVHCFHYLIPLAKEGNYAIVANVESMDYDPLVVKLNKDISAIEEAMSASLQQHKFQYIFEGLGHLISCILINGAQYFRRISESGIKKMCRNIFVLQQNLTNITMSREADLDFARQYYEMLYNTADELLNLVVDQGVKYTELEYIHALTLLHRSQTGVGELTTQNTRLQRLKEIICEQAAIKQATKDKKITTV
# UniProt Q9BSJ8: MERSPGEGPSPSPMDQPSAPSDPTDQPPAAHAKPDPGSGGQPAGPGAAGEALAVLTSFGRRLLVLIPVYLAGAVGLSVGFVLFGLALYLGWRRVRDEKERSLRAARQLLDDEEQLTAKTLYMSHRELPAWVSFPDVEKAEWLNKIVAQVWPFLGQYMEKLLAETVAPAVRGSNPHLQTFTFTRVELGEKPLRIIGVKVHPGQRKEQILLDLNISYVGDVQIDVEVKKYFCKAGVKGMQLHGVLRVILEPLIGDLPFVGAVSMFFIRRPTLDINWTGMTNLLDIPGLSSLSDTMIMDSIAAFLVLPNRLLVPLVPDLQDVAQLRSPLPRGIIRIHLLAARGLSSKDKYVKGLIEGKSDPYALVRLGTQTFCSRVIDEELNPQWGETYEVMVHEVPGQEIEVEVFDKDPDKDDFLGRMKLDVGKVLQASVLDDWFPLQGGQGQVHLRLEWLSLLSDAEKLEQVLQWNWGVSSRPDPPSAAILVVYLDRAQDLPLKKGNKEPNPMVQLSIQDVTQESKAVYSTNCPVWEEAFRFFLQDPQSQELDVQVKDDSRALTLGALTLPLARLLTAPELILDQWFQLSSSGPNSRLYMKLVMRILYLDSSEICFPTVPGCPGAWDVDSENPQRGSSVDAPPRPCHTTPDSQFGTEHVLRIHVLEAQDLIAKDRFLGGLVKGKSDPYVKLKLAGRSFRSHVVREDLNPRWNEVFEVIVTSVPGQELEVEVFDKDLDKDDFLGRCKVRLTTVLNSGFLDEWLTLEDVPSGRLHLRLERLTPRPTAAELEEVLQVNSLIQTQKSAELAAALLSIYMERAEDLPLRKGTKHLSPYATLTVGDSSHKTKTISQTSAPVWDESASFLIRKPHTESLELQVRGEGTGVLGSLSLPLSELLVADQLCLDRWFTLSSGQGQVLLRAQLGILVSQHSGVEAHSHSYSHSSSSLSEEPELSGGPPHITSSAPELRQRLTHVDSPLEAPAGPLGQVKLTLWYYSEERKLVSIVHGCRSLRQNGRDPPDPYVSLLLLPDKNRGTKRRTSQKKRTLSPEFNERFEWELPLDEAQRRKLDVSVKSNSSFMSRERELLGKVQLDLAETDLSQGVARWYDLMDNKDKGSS
# UniProt Q86UK5: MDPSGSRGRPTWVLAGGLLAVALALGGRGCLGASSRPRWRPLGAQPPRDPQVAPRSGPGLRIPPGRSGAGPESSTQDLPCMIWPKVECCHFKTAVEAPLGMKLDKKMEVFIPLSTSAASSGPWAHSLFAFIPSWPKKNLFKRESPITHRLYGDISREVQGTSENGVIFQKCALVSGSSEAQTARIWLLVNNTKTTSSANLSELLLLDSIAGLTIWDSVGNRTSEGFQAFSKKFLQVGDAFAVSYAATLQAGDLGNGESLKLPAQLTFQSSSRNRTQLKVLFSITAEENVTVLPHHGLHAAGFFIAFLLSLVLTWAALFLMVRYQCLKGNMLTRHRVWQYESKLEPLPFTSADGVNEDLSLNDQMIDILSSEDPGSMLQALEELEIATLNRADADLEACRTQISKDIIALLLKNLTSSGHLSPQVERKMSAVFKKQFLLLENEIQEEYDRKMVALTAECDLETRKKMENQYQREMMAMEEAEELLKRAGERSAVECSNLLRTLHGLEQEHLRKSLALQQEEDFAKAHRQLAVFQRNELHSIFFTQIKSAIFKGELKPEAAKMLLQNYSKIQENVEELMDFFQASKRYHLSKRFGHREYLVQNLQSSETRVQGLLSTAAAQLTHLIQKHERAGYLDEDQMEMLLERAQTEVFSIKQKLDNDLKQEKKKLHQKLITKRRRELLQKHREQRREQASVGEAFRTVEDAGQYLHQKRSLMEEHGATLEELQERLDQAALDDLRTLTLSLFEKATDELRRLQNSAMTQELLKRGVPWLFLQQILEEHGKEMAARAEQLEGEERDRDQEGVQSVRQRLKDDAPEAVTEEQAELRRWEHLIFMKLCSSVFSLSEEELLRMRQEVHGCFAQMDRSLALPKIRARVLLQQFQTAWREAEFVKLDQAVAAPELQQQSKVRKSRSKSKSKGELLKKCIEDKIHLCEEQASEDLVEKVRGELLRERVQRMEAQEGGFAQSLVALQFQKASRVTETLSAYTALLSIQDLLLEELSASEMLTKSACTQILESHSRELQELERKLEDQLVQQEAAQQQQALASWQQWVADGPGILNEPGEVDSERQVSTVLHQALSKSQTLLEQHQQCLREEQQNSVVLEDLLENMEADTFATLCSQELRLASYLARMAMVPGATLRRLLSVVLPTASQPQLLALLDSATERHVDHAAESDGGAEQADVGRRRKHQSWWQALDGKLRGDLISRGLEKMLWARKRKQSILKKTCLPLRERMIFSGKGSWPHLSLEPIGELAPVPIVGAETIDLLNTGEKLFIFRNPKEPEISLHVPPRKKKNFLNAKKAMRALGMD
# UniProt O94905: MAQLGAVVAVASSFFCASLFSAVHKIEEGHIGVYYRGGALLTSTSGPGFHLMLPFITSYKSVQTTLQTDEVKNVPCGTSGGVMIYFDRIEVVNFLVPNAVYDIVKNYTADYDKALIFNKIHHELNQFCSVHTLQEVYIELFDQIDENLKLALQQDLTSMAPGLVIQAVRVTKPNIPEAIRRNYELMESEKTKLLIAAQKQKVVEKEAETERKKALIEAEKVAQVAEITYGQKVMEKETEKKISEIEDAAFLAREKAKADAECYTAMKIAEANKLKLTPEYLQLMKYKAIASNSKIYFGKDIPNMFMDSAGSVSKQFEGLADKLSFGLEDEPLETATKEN
# The other results are listed elsewhere or left out.
# Key:
# Experiment in all cases: log2 fold change, soluble protein after heating vs DMSO (PISA); higher = thermal stabilisation; K562 cells, 10 uM, 30 min; active = over 0.2 and 3.5 SD of the protein, either way, in both replicates (recomputed)
# [1] = compound: CC[C@@H]1C(=O)N(C)c2cnc(Nc3ccc(C(=O)NC4CCN(C)CC4)cc3OC)nc2N1C1CCCC1
# Outline: (§1)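 Aliquots of K562 cells (2×10^6 cells/mL) treated with 10 μM compound for 30 min were heated for 3 min over 48°C-58°C. After pooling and extraction in PBS with 0.5% NP-40 at 4°C, soluble protein from a 21,000xg, 90 min spin was quantified by TMTpro 16plex LC-MS/MS with channel sums equalised. Thermal stability is expressed against control samples, from duplicates, as a log2 fold change.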
# volasertib = compound: CC[C@@H]1C(=O)N(C)c2cnc(Nc3ccc(C(=O)N[C@H]4CC[C@H](N5CCN(CC6CC6)CC5)CC4)cc3OC)nc2N1C(C)C [volasertib]
# Outline: as §1
# [2] = compound: CC[C@H](C)N1C=C(C2=C(C=C(C=C21)C3=CN=C(C=C3)N4CCNCC4)C(=O)NCC5=C(C=C(NC5=O)C)C)C
# Outline: as §1
# epoxomicin = compound: CC[C@H](C)[C@@H](C(=O)N[C@@H]([C@@H](C)O)C(=O)N[C@@H](CC(C)C)C(=O)[C@]1(CO1)C)NC(=O)[C@H]([C@@H](C)CC)N(C)C(=O)C [epoxomicin]
# Outline: as §1
# [3] = compound: CCn1c(C(=O)N(C2CC2)C2CC2)cc2c3c(ncn3C)c(Nc3cc(C)n(C)n3)nc21
# Outline: as §1
# [4] = compound: CCn1cc(-c2ccnc3[nH]c(-c4cccc(CN(C)C)c4)cc23)c(-c2ccc(NC(=O)N(C)C)cc2)n1
# Outline: as §1
# [5] = compound: CN(C)CC(=O)Nc1ccc2[nH]c(=O)c3ccccc3c2c1
# Outline: as §1
# rosiglitazone = compound: CN(CCOC1=CC=C(C=C1)C[C@H]2C(=O)NC(=O)S2)C3=CC=CC=N3 (racemic) [rosiglitazone]
# Outline: as §1
# [6] = compound: CN1C2=C(C3=C1C(=O)N(N=C3)CC4=CC(=CC=C4)N)SC(=C2)S(=O)C
# Outline: as §1
# [7] = compound: CN1CCC(CNc2ccc3ncc(-c4cccc(OC(F)(F)F)c4)n3n2)CC1
# Outline: as §1
# saracatinib = compound: CN1CCN(CCOc2cc(OC3CCOCC3)c3c(Nc4c(Cl)ccc5c4OCO5)ncnc3c2)CC1 [saracatinib]
# Outline: as §1
# sotrastaurin = compound: CN1CCN(c2nc(C3=C(c4c[nH]c5ccccc45)C(=O)NC3=O)c3ccccc3n2)CC1 [sotrastaurin]
# Outline: as §1
# alvocidib = compound: CN1CC[C@H](c2c(O)cc(O)c3c(=O)cc(-c4ccccc4Cl)oc23)[C@H](O)C1 [alvocidib]
# Outline: as §1
# Tubastatin A = compound: CN1CCc2c(c3ccccc3n2Cc2ccc(C(=O)NO)cc2)C1 [Tubastatin A]
# Outline: as §1
# [8] = compound: CNC(=O)C1=CC=CC=C1NC2=NC(=NC=C2Cl)NC3=C(C=C(C=C3)N4CCOCC4)OC
# Outline: as §1
# defactinib = compound: CNC(=O)c1ccc(Nc2ncc(C(F)(F)F)c(NCc3nccnc3N(C)S(C)(=O)=O)n2)cc1 [defactinib]
# Outline: as §1
# rucaparib = compound: CNCc1ccc(-c2[nH]c3cc(F)cc4c3c2CCNC4=O)cc1 [rucaparib]
# Outline: as §1
# [9] = compound: CNc1nc(-c2ccc3c(N)n[nH]c3c2)cc(N2C[C@@H](C(=O)NC3CCCCC3)CC[C@H]2C)n1
# Outline: as §1
# encorafenib = compound: COC(=O)N[C@@H](C)CNc1nccc(-c2cn(C(C)C)nc2-c2cc(Cl)cc(NS(C)(=O)=O)c2F)n1 [encorafenib]
# Outline: as §1
# [10] = compound: COC(=O)[C@H](CCSC)NC(=O)C1=C(C=C(C=C1)NC[C@H](CS)N)C2=CC=CC=C2
# Outline: as §1
Target,log2 fold change [1],log2 fold change (volasertib),log2 fold change [2],log2 fold change (epoxomicin),log2 fold change [3],log2 fold change [4],log2 fold change [5],log2 fold change (rosiglitazone),log2 fold change [6],log2 fold change [7],log2 fold change (saracatinib),log2 fold change (sotrastaurin),log2 fold change (alvocidib),log2 fold change (Tubastatin A),log2 fold change [8],log2 fold change (defactinib),log2 fold change (rucaparib),log2 fold change [9],log2 fold change (encorafenib),log2 fold change [10]
FAHD1 (UniProt Q6P587),inactive: 0.019,inactive: 0.039,inactive: -0.023,inactive: -0.004,inactive: 0.051,inactive: 0.012,inactive: -0.025,inactive: 0.009,inactive: -0.068,inactive: 0.02,inactive: 0.051,inactive: 0.07,inactive: 0.039,inactive: 0.038,inactive: 0.043,inactive: 0,inactive: -0.022,inactive: -0.005,inactive: -0.03,inactive: 0.02
FAM136A (UniProt Q96C01),inactive: 0.042,inactive: 0.053,inactive: -0.003,inactive: -0.005,inactive: 0.017,inactive: -0.035,inactive: -0.053,inactive: 0.012,inactive: -0.051,inactive: -0.013,inactive: 0.016,inactive: 0.013,inactive: -0.009,inactive: 0,inactive: -0.019,inactive: 0.004,inactive: -0.049,inactive: -0.016,inactive: -0.02,inactive: -0.012
EPRS (UniProt P07814),inactive: 0.13,inactive: 0.059,inactive: 0.019,inactive: -0.204,inactive: -0.027,inactive: 0.137,inactive: -0.007,inactive: -0.055,inactive: 0.38,inactive: 0.048,inactive: -0.104,inactive: -0.056,inactive: 0.214,inactive: 0.024,inactive: 0.017,inactive: 0.284,inactive: 0.421,inactive: 0.145,inactive: 0.204,inactive: 0.015
EPPK1 (UniProt P58107),inactive: 0.471,inactive: -0.369,inactive: 0.075,inactive: -0.237,inactive: -0.109,inactive: -0.052,inactive: 0.069,inactive: -0.078,inactive: 0.421,inactive: -0.016,inactive: -0.223,inactive: -0.266,inactive: 0.13,inactive: -0.141,inactive: -0.144,inactive: 0.092,inactive: 0.292,inactive: 0.058,inactive: 0.104,inactive: -0.265
F5 (UniProt P12259),inactive: -0.06,inactive: 0.105,inactive: -0.018,inactive: -0.125,,inactive: -0.048,inactive: -0.09,,inactive: 0.141,inactive: -0.009,inactive: -0.003,inactive: 0.139,,inactive: -0.076,inactive: 0.133,inactive: 0.081,inactive: -0.079,inactive: -0.068,inactive: 0.037,inactive: 0.039
EXOC1 (UniProt Q9NV70),inactive: -0.219,inactive: -0.44,inactive: 0.077,inactive: -0.012,,inactive: 0.023,inactive: 0.084,,inactive: 0.1,inactive: -0.319,inactive: 0.013,inactive: -0.249,,inactive: 0.038,inactive: -0.002,inactive: -0.074,inactive: 0.172,inactive: 0.066,inactive: 0.06,inactive: -0.081
FAM207A (UniProt Q9NSI2),inactive: -0.085,inactive: -0.165,inactive: 0.044,inactive: -0.024,,inactive: 0.023,inactive: 0.05,,inactive: 0.168,active: 0.418,inactive: 0.005,inactive: -0.115,,inactive: 0.106,inactive: 0.028,inactive: 0,inactive: 0.064,inactive: 0.007,inactive: 0.149,inactive: 0.031
EXOC8 (UniProt Q8IYI6),inactive: -0.212,active: -0.367,inactive: 0.045,inactive: -0.004,,inactive: 0.003,inactive: 0.073,,inactive: 0.009,active: -0.295,inactive: -0.015,inactive: -0.196,,inactive: -0.012,inactive: 0.056,inactive: -0.069,inactive: 0.016,inactive: 0.112,inactive: 0.094,inactive: -0.047
ETNK1 (UniProt Q9HBU6),inactive: 0.021,inactive: -0.24,inactive: 0.021,inactive: 0.157,,inactive: 0.059,inactive: 0.121,,inactive: -0.14,inactive: 0.041,inactive: -0.037,inactive: -0.045,,inactive: 0.092,inactive: 0.053,inactive: -0.001,active: 0.295,inactive: -0.039,inactive: -0.007,inactive: -0.027
ERG28 (UniProt Q9UKR5),inactive: 0.176,inactive: -0.09,inactive: -0.064,inactive: 0.092,inactive: 0.021,,inactive: 0,inactive: 0.107,,,,inactive: 0.061,inactive: 0.044,inactive: 0.025,inactive: 0.036,inactive: -0.014,inactive: -0.138,,inactive: 0.06,inactive: -0.096
"FADS1, A0A0A0MR51",inactive: 0.022,inactive: -0.148,inactive: 0.036,inactive: 0.024,,inactive: -0.002,inactive: -0.007,,inactive: -0.119,inactive: -0.041,inactive: 0.013,inactive: -0.061,,inactive: 0.15,inactive: 0.112,inactive: -0.022,inactive: 0.005,inactive: 0.027,inactive: 0.004,inactive: 0
FAM122A (UniProt Q96E09),inactive: -0.042,inactive: -0.054,inactive: 0.006,inactive: -0.141,,active: -0.426,inactive: -0.043,,inactive: -0.081,active: -0.699,inactive: -0.005,inactive: -0.027,,inactive: 0.096,inactive: -0.09,inactive: -0.018,inactive: 0.015,inactive: 0.017,inactive: -0.016,inactive: 0.056
EXOC6 (UniProt Q8TAG9),inactive: -0.224,active: -0.443,inactive: 0.102,inactive: -0.06,,inactive: 0.014,inactive: 0.033,,inactive: 0.06,inactive: -0.23,inactive: -0.02,inactive: -0.153,,inactive: 0.042,inactive: 0.075,inactive: -0.061,inactive: 0.025,inactive: -0.015,inactive: 0.013,inactive: 0.009
EXOC4 (UniProt Q96A65),inactive: -0.145,active: -0.606,inactive: 0.095,inactive: 0.005,,inactive: 0.021,inactive: 0.061,,inactive: 0.103,inactive: -0.243,inactive: -0.013,inactive: -0.224,,inactive: 0.058,inactive: -0.04,inactive: -0.049,inactive: 0.183,inactive: 0.015,inactive: 0.14,inactive: 0.01
ESYT1 isoform 2 (UniProt Q9BSJ8),inactive: 0.007,inactive: -0.37,inactive: 0.099,inactive: 0.026,,inactive: 0,inactive: 0.033,,inactive: 0.063,inactive: 0.115,inactive: -0.148,inactive: -0.208,,inactive: 0.031,inactive: -0.034,inactive: -0.043,inactive: 0.154,inactive: 0.099,inactive: 0.175,inactive: -0.099
EVC2 (UniProt Q86UK5),inactive: -0.133,inactive: -0.003,inactive: 0.078,inactive: 0.097,,inactive: -0.037,inactive: -0.087,,inactive: 0.034,inactive: -0.293,inactive: -0.151,inactive: 0.067,,inactive: -0.033,inactive: -0.035,inactive: -0.065,inactive: 0.065,inactive: 0.035,inactive: 0.002,inactive: 0.073
ERLIN2 (UniProt O94905),inactive: 0.06,inactive: -0.057,inactive: 0.054,inactive: -0.034,,inactive: 0.01,inactive: -0.051,,inactive: 0.096,inactive: 0.008,inactive: -0.044,inactive: -0.097,,inactive: 0,inactive: -0.137,inactive: 0.026,inactive: 0.033,inactive: -0.005,inactive: 0.092,inactive: 0.004
ERLIN1 (UniProt O75477),inactive: -0.01,inactive: -0.025,inactive: 0.07,inactive: 0.018,,inactive: 0.057,inactive: 0.003,,inactive: 0.095,inactive: 0.116,inactive: 0,inactive: -0.072,,inactive: 0.029,inactive: -0.06,inactive: 0.028,inactive: 0.072,inactive: -0.004,inactive: 0.105,inactive: -0.024

# Quoted at random: 2 records from the list, in no set order.
Target,log2 fold change [1],log2 fold change (volasertib),log2 fold change [2],log2 fold change (epoxomicin),log2 fold change [3],log2 fold change [4],log2 fold change [5],log2 fold change (rosiglitazone),log2 fold change [6],log2 fold change [7],log2 fold change (saracatinib),log2 fold change (sotrastaurin),log2 fold change (alvocidib),log2 fold change (Tubastatin A),log2 fold change [8],log2 fold change (defactinib),log2 fold change (rucaparib),log2 fold change [9],log2 fold change (encorafenib),log2 fold change [10]
FAM122A (UniProt Q96E09),inactive: -0.042,inactive: -0.054,inactive: 0.006,inactive: -0.141,,active: -0.426,inactive: -0.043,,inactive: -0.081,active: -0.699,inactive: -0.005,inactive: -0.027,,inactive: 0.096,inactive: -0.09,inactive: -0.018,inactive: 0.015,inactive: 0.017,inactive: -0.016,inactive: 0.056
EXOC6 (UniProt Q8TAG9),inactive: -0.224,active: -0.443,inactive: 0.102,inactive: -0.06,,inactive: 0.014,inactive: 0.033,,inactive: 0.06,inactive: -0.23,inactive: -0.02,inactive: -0.153,,inactive: 0.042,inactive: 0.075,inactive: -0.061,inactive: 0.025,inactive: -0.015,inactive: 0.013,inactive: 0.009
